Test results as given in US20060025329A1.
Results are given in words; binding and its absence hold for the method and conditions named. Some binding calls cover weakened binding; strength is not graded here.

How the values were obtained:
[1] = biological target: sVLDLr1-8 (VLDL receptor ligand binding repeats 1-8) (UniProt P98155); assay: competition ELISA, RAP on immobilized VLDLr ligand binding repeats 1-8
[2] = biological target: sVLDLr1-8 (VLDL receptor ligand binding repeats 1-8) (UniProt P98155); assay: competition ELISA, 1 nM RAP on immobilized sVLDLr1-8, competitor concentration varied

B1: TFPI C-terminal peptide (carboxyl terminal 23 amino acids of TFPI) (peptide)
peptide: KTKRKRKKQRVKIAYEEIFVKNM
binding [1]: binds
binding [2]: binds
